# Laboratory results taken from PubChem BioAssay AID330 (DTP/NCI, 2004).
# The list does not hold the whole screen: it gathers tests that were run many times, whatever their T/C, doses with no T/C, and many T/C values between a quarter and a half above the control. Further doses and runs are listed elsewhere. T/C is the treated group as % of the vehicle group. Some entries give survivors of the animals treated and no T/C: the source files T/C as zero there, which appears to mark a toxic dose or a test without result, not a measured value. Some survivor counts are full or nearly so, which does not show that the dose was tolerated: survival well below the control is almost never listed, so the zero probably covers shortened survival too. Survivors were counted at the toxicity check, usually on the fifth day, unless a day is given; later deaths do not show. Schedules are NCI's codes, taken here to give the interval after Q, in days (D) or hours (H), and the number of doses after X. Some molecules as drawn cover several salts, stereoisomers or complexes of the source; a dose is that of the sample tested. Some entries were tested several times; their values stand side by side, smallest first. Counts like (3×) count equal records among those shown. Where survival is the endpoint, the PubChem record calls one and a half times the control and up active, and a quarter to a half above the control has no call in these data; cut-offs in other NCI protocols can differ. Some T/C values carry the count of animals alive at the toxicity check (mostly the fifth day); where none is given, no animal had died by that day.
# System: P388 leukemia ip, CD2F1 mice, survival T/C
# Experiment: NCI In Vivo Anticancer Drug Screen. Data for tumor model P388 Leukemia (intraperitoneal) in CD2F1 (CDF1) mice
# Conditions: T/C endpoint: median survival time, higher T/C = longer survival
# [1] = dose: 5.0 mg/kg/injection, schedule: Q01DX005 (iv), vehicle: clinical formulation
structure (smiles),measurement,setting,value
O=C1NC2(CCCCC2)C(=O)N1CCN(CCCl)CCCl,T/C,"dose: 0.75 mg/kg/injection, schedule: Q01DX009 (ip), vehicle: Klucel (hydroxypropylcellulose) (HPC)","132, 134, 145 % of control"
same,T/C,"dose: 0.78 mg/kg/injection, schedule: Q01DX009 (ip), vehicle: saline",130 and 132 % of control
same,T/C,"dose: 1.25 mg/kg/injection, schedule: Q01DX005 (ip), vehicle: other",125 % of control
same,T/C,"dose: 1.25 mg/kg/injection, schedule: Q01DX005 (iv), vehicle: clinical formulation",128 % of control
same,T/C,"dose: 1.25 mg/kg/injection, schedule: Q01DX009 (ip), vehicle: clinical formulation",142 % of control
same,T/C,"dose: 1.25 mg/kg/injection, schedule: Q01DX009 (ip), vehicle: other",136 % of control
same,T/C,"dose: 1.5 mg/kg/injection, schedule: Q01DX009 (ip), vehicle: Klucel (hydroxypropylcellulose) (HPC)",142 and 143 % of control
same,T/C,"dose: 1.5 mg/kg/injection, schedule: Q01DX009 (ip), vehicle: saline with Tween-80",127 % of control
same,T/C,"dose: 1.5 mg/kg/injection, schedule: Q01DX009 (ip), vehicle: saline, evaluated on day 30","128 [5 of 6 alive], 131, 134, 151 % of control [5 of 6 alive]"
same,T/C,"dose: 1.5 mg/kg/injection, schedule: Q01DX009 (ip), vehicle: saline, evaluated on day 60",113 % of control
same,T/C,"dose: 1.56 mg/kg/injection, schedule: Q01DX009 (ip), vehicle: saline",141 and 147 % of control [5 of 6 alive]
same,T/C,"dose: 2.5 mg/kg/injection, schedule: Q01DX005 (ip), vehicle: other",133 % of control
same,T/C,"dose: 2.5 mg/kg/injection, schedule: Q01DX005 (iv), vehicle: clinical formulation",130 % of control
same,T/C,"dose: 2.5 mg/kg/injection, schedule: Q01DX009 (ip), vehicle: saline with Tween-80",146 % of control
same,T/C,"dose: 2.5 mg/kg/injection, schedule: Q01DX009 (ip), vehicle: saline",148 % of control
same,T/C,"dose: 2.6 mg/kg/injection, schedule: Q01DX009 (ip), vehicle: Klucel (hydroxypropylcellulose) (HPC), evaluated on day 45","145, 169, 171 % of control"
same,T/C,"dose: 2.6 mg/kg/injection, schedule: Q01DX009 (ip), vehicle: Klucel (hydroxypropylcellulose) (HPC), evaluated on day 60",167 % of control
same,T/C,"dose: 3.0 mg/kg/injection, schedule: Q01DX005 (ip), vehicle: saline",127 and 135 % of control
same,T/C,"dose: 3.0 mg/kg/injection, schedule: Q01DX005 (ip), vehicle: suspension in saline",138 % of control
same,T/C,"dose: 3.0 mg/kg/injection, schedule: Q01DX009 (ip), vehicle: other",132 % of control
same,T/C,"dose: 3.0 mg/kg/injection, schedule: Q01DX009 (ip), vehicle: saline, evaluated on day 30","140, 146, 160, 177 % of control"
same,T/C,"dose: 3.0 mg/kg/injection, schedule: Q01DX009 (ip), vehicle: saline, evaluated on day 60",128 % of control
same,T/C,"dose: 4.0 mg/kg/injection, schedule: Q01DX009 (ip), vehicle: Klucel (hydroxypropylcellulose) (HPC), evaluated on day 30",181 % of control [9 of 10 alive]
same,T/C,"dose: 4.0 mg/kg/injection, schedule: Q01DX009 (ip), vehicle: Klucel (hydroxypropylcellulose) (HPC), evaluated on day 45","177, 182, 188, 195, 200, 202, 228 % of control"
same,T/C,"dose: 4.0 mg/kg/injection, schedule: Q01DX009 (ip), vehicle: Klucel (hydroxypropylcellulose) (HPC), evaluated on day 60","184, 186 (2×), 196, 201, 212 % of control"
same,T/C,"dose: 5.0 mg/kg/injection, schedule: Q01DX001 (ip), vehicle: other",128 % of control
same,T/C,"dose: 5.0 mg/kg/injection, schedule: Q01DX005 (ip), vehicle: other",143 % of control
same,T/C,[1],146 % of control
same,survivor count,[1],6 of 8
same,T/C,"dose: 5.0 mg/kg/injection, schedule: Q01DX009 (ip), vehicle: clinical formulation",133 % of control
same,survivor count,"dose: 5.0 mg/kg/injection, schedule: Q01DX009 (ip), vehicle: saline with Tween-80",5 of 8
same,T/C,"dose: 6.0 mg/kg/injection, schedule: Q01DX005 (ip), vehicle: saline",136 and 144 % of control
same,T/C,"dose: 6.0 mg/kg/injection, schedule: Q01DX009 (ip), vehicle: Klucel (hydroxypropylcellulose) (HPC), evaluated on day 30","195, 196, 200, 201 % of control"
same,T/C,"dose: 6.0 mg/kg/injection, schedule: Q01DX009 (ip), vehicle: Klucel (hydroxypropylcellulose) (HPC), evaluated on day 45","192, 198, 201, 214, 216, 230, 232 % of control"
same,T/C,"dose: 6.0 mg/kg/injection, schedule: Q01DX009 (ip), vehicle: Klucel (hydroxypropylcellulose) (HPC), evaluated on day 60","202, 208, 209 [9 of 10 alive], 220, 226, 238 % of control"
same,T/C,"dose: 6.0 mg/kg/injection, schedule: Q01DX009 (ip), vehicle: saline, evaluated on day 30","164, 166, 169, 223 % of control"
same,T/C,"dose: 6.0 mg/kg/injection, schedule: Q01DX009 (ip), vehicle: saline, evaluated on day 45",240 % of control
same,T/C,"dose: 6.0 mg/kg/injection, schedule: Q01DX009 (ip), vehicle: saline, evaluated on day 60",136 % of control
same,T/C,"dose: 8.0 mg/kg/injection, schedule: Q01DX001 (ip), vehicle: saline",127 % of control
same,T/C,"dose: 9.0 mg/kg/injection, schedule: Q01DX009 (ip), vehicle: Klucel (hydroxypropylcellulose) (HPC), evaluated on day 30",227 % of control
same,T/C,"dose: 9.0 mg/kg/injection, schedule: Q01DX009 (ip), vehicle: Klucel (hydroxypropylcellulose) (HPC), evaluated on day 45","200, 231, 242, 244, 245 [7 of 8 alive], 248, 250, 273 % of control"
same,T/C,"dose: 9.0 mg/kg/injection, schedule: Q01DX009 (ip), vehicle: Klucel (hydroxypropylcellulose) (HPC), evaluated on day 60","227, 228, 239, 248, 283, 303 % of control"
same,T/C,"dose: 10.0 mg/kg/injection, schedule: Q01DX001 (ip), vehicle: other",133 % of control
same,survivor count,"dose: 10.0 mg/kg/injection, schedule: Q01DX005 (ip), vehicle: other",6 of 10
same,survivor count,"dose: 10.0 mg/kg/injection, schedule: Q01DX005 (iv), vehicle: clinical formulation",7 of 8
same,T/C,"dose: 10.0 mg/kg/injection, schedule: Q01DX005 (iv), vehicle: other",133 % of control
same,T/C,"dose: 12.0 mg/kg/injection, schedule: Q01DX005 (iv), vehicle: suspension in saline",126 % of control
same,T/C,"dose: 12.0 mg/kg/injection, schedule: Q01DX009 (ip), vehicle: Klucel (hydroxypropylcellulose) (HPC)",129 % of control
same,T/C,"dose: 12.0 mg/kg/injection, schedule: Q01DX009 (ip), vehicle: saline, evaluated on day 30","117, 169, 184, 211 % of control"
same,T/C,"dose: 12.0 mg/kg/injection, schedule: Q01DX009 (ip), vehicle: saline, evaluated on day 60",151 % of control
same,T/C,"dose: 12.5 mg/kg/injection, schedule: Q01DX009 (ip), vehicle: saline",127 and 137 % of control
same,T/C,"dose: 13.0 mg/kg/injection, schedule: Q01DX009 (ip), vehicle: Klucel (hydroxypropylcellulose) (HPC), evaluated on day 30",240 % of control
same,T/C,"dose: 13.0 mg/kg/injection, schedule: Q01DX009 (ip), vehicle: Klucel (hydroxypropylcellulose) (HPC), evaluated on day 45","98, 99 [9 of 10 alive], 169, 250, 267, 326 % of control"
same,T/C,"dose: 13.0 mg/kg/injection, schedule: Q01DX009 (ip), vehicle: Klucel (hydroxypropylcellulose) (HPC), evaluated on day 60","131, 132, 140, 158, 245 % of control"
same,T/C,"dose: 16.0 mg/kg/injection, schedule: Q01DX001 (ip), vehicle: saline",133 % of control
same,T/C,"dose: 16.0 mg/kg/injection, schedule: Q01DX001 (ip), vehicle: suspension in saline",148 % of control [5 of 6 alive]
same,survivor count,"dose: 20.0 mg/kg/injection, schedule: Q01DX005 (iv), vehicle: clinical formulation",4 of 8 (2×) and 6 of 8
same,survivor count,"dose: 20.0 mg/kg/injection, schedule: Q01DX009 (ip), vehicle: clinical formulation",4 of 8 and 7 of 8 (2×)
same,survivor count,"dose: 20.0 mg/kg/injection, schedule: Q01DX009 (ip), vehicle: other",5 of 10
same,survivor count,"dose: 20.0 mg/kg/injection, schedule: Q01DX009 (ip), vehicle: saline with Tween-80",6 of 8 and 8 of 8
same,T/C,"dose: 20.0 mg/kg/injection, schedule: Q01DX009 (oral), vehicle: other",125 % of control
same,survivor count,"dose: 24.0 mg/kg/injection, schedule: Q01DX009 (ip), vehicle: Klucel (hydroxypropylcellulose) (HPC)",6 of 6
same,survivor count,"dose: 24.0 mg/kg/injection, schedule: Q01DX009 (ip), vehicle: saline with Tween-80",4 of 6
same,T/C,"dose: 24.0 mg/kg/injection, schedule: Q01DX009 (ip), vehicle: saline, evaluated on day 30","170, 228, 239 % of control"
same,T/C,"dose: 24.0 mg/kg/injection, schedule: Q01DX009 (ip), vehicle: saline, evaluated on day 60",173 % of control
same,survivor count,"dose: 24.0 mg/kg/injection, schedule: Q01DX009 (ip), vehicle: saline",6 of 6
same,survivor count,"dose: 25.0 mg/kg/injection, schedule: Q01DX009 (ip), vehicle: Klucel (hydroxypropylcellulose) (HPC)",6 of 8
same,survivor count,"dose: 25.0 mg/kg/injection, schedule: Q01DX009 (ip), vehicle: saline",4 of 6 and 6 of 6
same,T/C,"dose: 25.0 mg/kg/injection, schedule: Q01DX009 (oral), vehicle: Klucel (hydroxypropylcellulose) (HPC)",126 and 130 % of control
same,T/C,"dose: 32.0 mg/kg/injection, schedule: Q01DX001 (ip), vehicle: saline",138 % of control
same,T/C,"dose: 32.0 mg/kg/injection, schedule: Q01DX001 (ip), vehicle: suspension in saline",145 % of control [5 of 6 alive]
same,survivor count,"dose: 40.0 mg/kg/injection, schedule: Q01DX009 (ip), vehicle: clinical formulation","1 of 8, 2 of 8, 3 of 8"
same,survivor count,"dose: 40.0 mg/kg/injection, schedule: Q01DX009 (ip), vehicle: saline with Tween-80",1 of 8 and 3 of 8
same,survivor count,"dose: 40.0 mg/kg/injection, schedule: Q01DX009 (ip), vehicle: saline",3 of 8
same,survivor count,"dose: 50.0 mg/kg/injection, schedule: Q01DX001 (ip), vehicle: saline",6 of 6
same,T/C,"dose: 50.0 mg/kg/injection, schedule: Q01DX009 (oral), vehicle: Klucel (hydroxypropylcellulose) (HPC)",130 % of control
same,survivor count,"dose: 96.0 mg/kg/injection, schedule: Q01DX009 (oral), vehicle: Klucel (hydroxypropylcellulose) (HPC)",6 of 6
same,T/C,"dose: 96.0 mg/kg/injection, schedule: Q01DX009 (oral), vehicle: saline",145 % of control
same,survivor count,"dose: 100.0 mg/kg/injection, schedule: Q01DX001 (ip), vehicle: Klucel (hydroxypropylcellulose) (HPC)",5 of 6
same,survivor count,"dose: 100.0 mg/kg/injection, schedule: Q01DX001 (ip), vehicle: saline",6 of 6
